Results published in PMC4121237, “Engineering Neprilysin Activity and Specificity to Create a Novel Therapeutic for Alzheimer’s Disease” (PLoS ONE, 2014).
Numbering of substitutions follows the chain as printed. Names and notes keep the numbering of the source.

B1: wild-type NEP: soluble extracellular domain (amino acids 52–749) of wild type human NEP (neprilysin), tagged, recombinantly expressed (protein, UniProt P08473 52-749, looked up, fragment)
chain: YDDGICKSSDCIKSAARLIQNMDATTEPCTDFFKYACGGWLKRNVIPETSSRYGNFDILRDELEVVLKDVLQEPKTEDIVAVQKAKALYRSCINESAIDSRGGEPLLKLLPDIYGWPVATENWEQKYGASWTAEKAIAQLNSKYGKKVLINLFVGTDDKNSVNHVIHIDQPRLGLPSRDYYECTGIYKEACTAYVDFMISVARLIRQEERLPIDENQLALEMNKVMELEKEIANATAKPEDRNDPMLLYNKMTLAQIQNNFSLEINGKPFSWLNFTNEIMSTVNISITNEEDVVVYAPEYLTKLKPILTKYSARDLQNLMSWRFIMDLVSSLSRTYKESRNAFRKALYGTTSETATWRRCANYVNGNMENAVGRLYVEAAFAGESKHVVEDLIAQIREVFIQTLDDLTWMDAETKKRAEEKALAIKERIGYPDDIVSNDNKLNNEYLELNYKEDEYFENIIQNLKFSQSKQLKKLREKVDKDEWISGAAVVNAFYSSGRNQIVFPAGILQPPFFSAQQSNSLNYGGIGMVIGHEITHGFDDNGRNFNKDGDLVDWWTQQSASNFKEQSQCMVYQYGNFSWDLAGGQHLNGINTLGENIADNGGLGQAYRAYQNYIKKNGEEKLLPGLDLNHKQLFFLNFAQVWCGTYRPEYAVNSIKTDVHSPGNFRIIGTLQNSAEFSEAFHCRKNSYMNPEKKCRV
modifications: extracellular domain tag
notes: soluble extracellular domain (amino acids 52–749) of wild type human NEP (neprilysin), tagged, recombinantly expressed
B2: NEPv: lead variant at round 2, human NEP ectodomain with the two mutations G399V and G714K (protein, UniProt P08473 52-750, looked up, variant G399V G714K)
extracellular domain: YDDGICKSSDCIKSAARLIQNMDATTEPCTDFFKYACGGWLKRNVIPETSSRYGNFDILRDELEVVLKDVLQEPKTEDIVAVQKAKALYRSCINESAIDSRGGEPLLKLLPDIYGWPVATENWEQKYGASWTAEKAIAQLNSKYGKKVLINLFVGTDDKNSVNHVIHIDQPRLGLPSRDYYECTGIYKEACTAYVDFMISVARLIRQEERLPIDENQLALEMNKVMELEKEIANATAKPEDRNDPMLLYNKMTLAQIQNNFSLEINGKPFSWLNFTNEIMSTVNISITNEEDVVVYAPEYLTKLKPILTKYSARDLQNLMSWRFIMDLVSSLSRTYKESRNAFRKALYVTTSETATWRRCANYVNGNMENAVGRLYVEAAFAGESKHVVEDLIAQIREVFIQTLDDLTWMDAETKKRAEEKALAIKERIGYPDDIVSNDNKLNNEYLELNYKEDEYFENIIQNLKFSQSKQLKKLREKVDKDEWISGAAVVNAFYSSGRNQIVFPAGILQPPFFSAQQSNSLNYGGIGMVIGHEITHGFDDNGRNFNKDGDLVDWWTQQSASNFKEQSQCMVYQYGNFSWDLAGGQHLNGINTLGENIADNGGLGQAYRAYQNYIKKNGEEKLLPGLDLNHKQLFFLNFAQVWCGTYRPEYAVNSIKTDVHSPKNFRIIGTLQNSAEFSEAFHCRKNSYMNPEKKCRVW
modifications: extracellular domain
B3: NEP G399V: single mutant G399V of the human NEP ectodomain (protein, UniProt P08473 52-750, looked up, variant G399V)
extracellular domain: B2 extracellular domain with K664G
modifications: extracellular domain
notes: single mutant G399V of the human NEP ectodomain
B4: NEP G714K: single mutant G714K of the human NEP ectodomain (protein, UniProt P08473 52-750, looked up, variant G714K)
extracellular domain: B2 extracellular domain with V349G
modifications: extracellular domain
notes: single mutant G714K of the human NEP ectodomain

Test system: Aβ1–40
Assay: MALDI MS analysis of cleavage products
Type: biochemical
Settings: 10 µM Aβ1–40, 37°C, 10, 60 and 360 min

Molecule | predominant / preferential cleavage site(s) in Aβ1–40
B1 | Lys^16-Leu^17, Leu^17-Val^18 and Phe^19-Phe^20
B2 | Phe^20-Ala^21
B3 | Phe^19-Phe^20
B4 | Leu^17-Val^18
